Data as given in publication PMC10891341.
These are yes or no findings as the source states them, for the method shown. In cells and extracts the contact can be indirect. Some entries that bind do so weakly or less than the wild type. For part of these data: Sequences can lack the tags named with a protein.

The chains behind the UniProt entries cited, without tags or fusion partners.
UniProt Q9BPZ7: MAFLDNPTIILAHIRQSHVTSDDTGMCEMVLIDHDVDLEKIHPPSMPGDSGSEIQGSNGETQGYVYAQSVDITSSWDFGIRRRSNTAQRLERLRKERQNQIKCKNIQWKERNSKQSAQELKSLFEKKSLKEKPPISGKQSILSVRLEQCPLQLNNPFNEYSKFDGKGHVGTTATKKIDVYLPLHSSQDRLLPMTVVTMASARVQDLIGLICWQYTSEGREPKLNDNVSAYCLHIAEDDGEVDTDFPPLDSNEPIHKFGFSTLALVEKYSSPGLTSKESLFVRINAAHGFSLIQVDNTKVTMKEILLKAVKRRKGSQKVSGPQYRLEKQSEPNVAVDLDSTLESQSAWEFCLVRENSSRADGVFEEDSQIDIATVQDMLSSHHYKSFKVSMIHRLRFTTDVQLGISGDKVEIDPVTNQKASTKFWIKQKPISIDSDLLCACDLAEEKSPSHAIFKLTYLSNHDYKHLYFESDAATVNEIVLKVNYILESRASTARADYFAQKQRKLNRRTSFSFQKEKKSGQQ

T1: NOP14 tagged with S-FLAG-SBP (SFB) (human) (UniProt P78316)
T1 sequence: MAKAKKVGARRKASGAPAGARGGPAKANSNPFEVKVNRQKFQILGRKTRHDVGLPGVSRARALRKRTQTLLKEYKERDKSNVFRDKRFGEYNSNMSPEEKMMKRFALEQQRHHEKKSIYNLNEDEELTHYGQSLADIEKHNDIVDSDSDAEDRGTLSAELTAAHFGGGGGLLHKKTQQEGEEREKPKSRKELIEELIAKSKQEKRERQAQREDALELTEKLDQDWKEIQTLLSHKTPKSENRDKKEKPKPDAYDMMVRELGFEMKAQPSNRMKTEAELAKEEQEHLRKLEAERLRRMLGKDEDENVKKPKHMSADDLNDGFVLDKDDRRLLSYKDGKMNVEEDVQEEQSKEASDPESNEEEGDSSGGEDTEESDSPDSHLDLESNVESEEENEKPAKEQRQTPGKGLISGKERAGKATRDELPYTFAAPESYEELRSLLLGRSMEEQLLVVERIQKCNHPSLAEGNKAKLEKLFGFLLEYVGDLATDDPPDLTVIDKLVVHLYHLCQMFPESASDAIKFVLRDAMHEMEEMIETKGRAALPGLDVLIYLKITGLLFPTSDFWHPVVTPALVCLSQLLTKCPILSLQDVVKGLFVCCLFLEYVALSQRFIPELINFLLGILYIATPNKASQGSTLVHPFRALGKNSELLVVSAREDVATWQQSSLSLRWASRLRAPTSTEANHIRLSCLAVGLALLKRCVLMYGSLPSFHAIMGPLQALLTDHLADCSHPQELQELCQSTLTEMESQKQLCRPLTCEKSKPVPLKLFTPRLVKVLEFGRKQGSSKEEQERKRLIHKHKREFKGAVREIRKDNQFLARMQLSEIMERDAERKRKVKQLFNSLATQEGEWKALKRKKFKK


How the values were obtained:
[1] = molecular target: T1, NOP14 tagged with S-FLAG-SBP (SFB) (human); test: co-IP; SFB-tagged NOP14 with HA-tagged prey proteins; cell lysates precipitated with S-protein beads, immunoblot
[2] = molecular target: Sin1 (human (endogenous in 293T)) (UniProt Q9BPZ7); test: co-IP; 293T cells with scrambled or NOP14 shRNA (72 h); lysates in CHAPS buffer immunoprecipitated with anti-Sin1 antibody or control IgG, immunoblot

Row | binding [1] | binding [2] | Binder
1 | binds | – | HA-tagged BYSL (protein, UniProt Q13895 1-437) MPKFKAARGVGGQEKHAPLADQILAGNAVRAGVREKRRGRGTGEAEEEYVGPRLSRRILQQARQQQEELEAEHGTGDKPAAPRERTTRLGPRMPQDGSDDEDEEWPTLEKAATMTAAGHHAEVVVDPEDERAIEMFMNKNPPARRTLADIIMEKLTEKQTEVETVMSEVSGFPMPQLDPRVLEVYRGVREVLSKYRSGKLPKAFKIIPALSNWEQILYVTEPEAWTAAAMYQATRIFASNLKERMAQRFYNLVLLPRVRDDVAEYKRLNFHLYMALKKALFKPGAWFKGILIPLCESGTCTLREAIIVGSIITKCSIPVLHSSAAMLKIAEMEYSGANSIFLRLLLDKKYALPYRVLDALVFHFLGFRTEKRELPVLWHQCLLTLVQRYKADLATDQKEALLELLRLQPHPQLSPEIRRELQSAVPRDVEDVPITVE
2 | binds | – | HA-tagged NOC4L (protein, UniProt Q9BVI4 1-516) MEREPGAAGVRRALGRRLEAVLASRSEANAVFDILAVLQSEDQEEIQEAVRTCSRLFGALLERGELFVGQLPSEEMVMTGSQGATRKYKVWMRHRYHSCCNRLGELLGHPSFQVKELALSALLKFVQLEGAHPLEKSKWEGNYLFPRELFKLVVGGLLSPEEDQSLLLSQFREYLDYDDTRYHTMQAAVDAVARVTGQHPEVPPAFWNNAFTLLSAVSLPRREPTVSSFYVKRAELWDTWKVAHLKEHRRVFQAMWLSFLKHKLPLSLYKKVLLIVHDAILPQLAQPTLMIDFLTRACDLGGALSLLALNGLFILIHKHNLEYPDFYRKLYGLLDPSVFHVKYRARFFHLADLFLSSSHLPAYLVAAFAKRLARLALTAPPEALLMVLPFICNLLRRHPACRVLVHRPHGPELDADPYDPGEEDPAQSRALESSLWELQALQRHYHPEVSKAASVINQALSMPEVSIAPLLELTAYEIFERDLKKKGPEPVPLEFIPAQGLLGRPGELCAQHFTLS
3 | – | no binding | NOP14 (protein, UniProt P78316 1-857) MAKAKKVGARRKASGAPAGARGGPAKANSNPFEVKVNRQKFQILGRKTRHDVGLPGVSRARALRKRTQTLLKEYKERDKSNVFRDKRFGEYNSNMSPEEKMMKRFALEQQRHHEKKSIYNLNEDEELTHYGQSLADIEKHNDIVDSDSDAEDRGTLSAELTAAHFGGGGGLLHKKTQQEGEEREKPKSRKELIEELIAKSKQEKRERQAQREDALELTEKLDQDWKEIQTLLSHKTPKSENRDKKEKPKPDAYDMMVRELGFEMKAQPSNRMKTEAELAKEEQEHLRKLEAERLRRMLGKDEDENVKKPKHMSADDLNDGFVLDKDDRRLLSYKDGKMNVEEDVQEEQSKEASDPESNEEEGDSSGGEDTEESDSPDSHLDLESNVESEEENEKPAKEQRQTPGKGLISGKERAGKATRDELPYTFAAPESYEELRSLLLGRSMEEQLLVVERIQKCNHPSLAEGNKAKLEKLFGFLLEYVGDLATDDPPDLTVIDKLVVHLYHLCQMFPESASDAIKFVLRDAMHEMEEMIETKGRAALPGLDVLIYLKITGLLFPTSDFWHPVVTPALVCLSQLLTKCPILSLQDVVKGLFVCCLFLEYVALSQRFIPELINFLLGILYIATPNKASQGSTLVHPFRALGKNSELLVVSAREDVATWQQSSLSLRWASRLRAPTSTEANHIRLSCLAVGLALLKRCVLMYGSLPSFHAIMGPLQALLTDHLADCSHPQELQELCQSTLTEMESQKQLCRPLTCEKSKPVPLKLFTPRLVKVLEFGRKQGSSKEEQERKRLIHKHKREFKGAVREIRKDNQFLARMQLSEIMERDAERKRKVKQLFNSLATQEGEWKALKRKKFKK
